The target in assay [1] is FLAG-AID (UniProt Q9GZX7). The experiment in a line: co-IP.
For assay [2], the target named is FLAG-Exosc3 (UniProt Q9NQT5). The experiment in a line: co-IP.

By UniProt entry, the sequences of proteins in these tests, tags left out.
UniProt Q9GZX7: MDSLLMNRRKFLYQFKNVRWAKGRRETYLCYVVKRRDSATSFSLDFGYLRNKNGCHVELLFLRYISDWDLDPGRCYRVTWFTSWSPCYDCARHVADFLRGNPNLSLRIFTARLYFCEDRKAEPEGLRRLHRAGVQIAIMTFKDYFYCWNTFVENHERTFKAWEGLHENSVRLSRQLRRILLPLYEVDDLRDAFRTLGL
UniProt Q9NQT5: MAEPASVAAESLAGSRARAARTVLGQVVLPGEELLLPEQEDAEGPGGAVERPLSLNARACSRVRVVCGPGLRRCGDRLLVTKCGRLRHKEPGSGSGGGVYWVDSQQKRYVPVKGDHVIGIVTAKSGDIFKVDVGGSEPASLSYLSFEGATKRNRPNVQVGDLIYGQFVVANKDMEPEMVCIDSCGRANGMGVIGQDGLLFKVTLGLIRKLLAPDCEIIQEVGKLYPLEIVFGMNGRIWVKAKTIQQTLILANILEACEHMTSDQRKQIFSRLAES
UniProt Q15024: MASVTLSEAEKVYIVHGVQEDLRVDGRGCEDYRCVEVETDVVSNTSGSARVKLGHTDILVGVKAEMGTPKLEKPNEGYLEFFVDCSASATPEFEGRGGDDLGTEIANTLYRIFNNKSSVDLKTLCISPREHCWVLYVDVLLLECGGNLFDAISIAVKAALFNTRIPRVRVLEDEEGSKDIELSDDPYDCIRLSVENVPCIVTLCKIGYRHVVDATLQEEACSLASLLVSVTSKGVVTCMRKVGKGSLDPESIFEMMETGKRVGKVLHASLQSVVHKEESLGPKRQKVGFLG
UniProt Q13868: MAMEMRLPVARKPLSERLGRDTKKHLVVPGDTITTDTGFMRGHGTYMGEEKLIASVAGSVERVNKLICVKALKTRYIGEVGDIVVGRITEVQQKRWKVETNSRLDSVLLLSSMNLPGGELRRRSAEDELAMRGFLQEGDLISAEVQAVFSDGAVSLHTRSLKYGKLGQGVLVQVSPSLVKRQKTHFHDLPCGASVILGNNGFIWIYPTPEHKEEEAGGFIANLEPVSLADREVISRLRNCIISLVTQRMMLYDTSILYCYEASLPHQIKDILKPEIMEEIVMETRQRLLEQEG

In article PMC4383551 one finds binding data, which are given here for six substances.

No constants are given. Whether binding was seen depends on the method and setting. Binding seen in cells or lysates may run through a third protein. Some entries that bind do so weakly or less than the wild type.

As to “Exosome component 3 (Exosc3) as found in the FLAG-AID precipitate of Fig 5A (from UniProt Q9NQT5 1-275)”, in assay [1], the binding result is listed as “binds”.

In the case of “activation-induced cytidine deaminase (AID) (from UniProt Q9GZX7 1-198) (enzyme)”, the binding result in assay [2] is listed as “binds”.

As to “AID-GFP (from UniProt Q9GZX7 1-198) (enzyme)”, the binding result in assay [2] is reported as “binds”.

For GFP-Exosc7 (from UniProt Q15024 1-291), the binding result in assay [1] and in assay [2] was “binds” throughout.

On to GFP-Exosc3 (from UniProt Q9NQT5 1-275), for which the binding result in assay [1] is listed as “binds”.

With GFP-Exosc2 (from UniProt Q13868 1-293), the binding entry in assay [1] and in assay [2] was “binds” each time.
